Structures can show the parent of a compound that is named as a salt. Where two headings read alike, the source gives them in different places.
Experiments:
[1] = rats, n = 6, median (range)
in vivo = settings: male, Sprague-Dawley, rat, plasma, po; for AUC(0-t): AUC0-24 h of fexofenadine; for AUC(0-t) / Cmax: rats, n = 6, mean ± SD; for Cmax: Cmax of fexofenadine
[2] = fexofenadine 10 mg/kg oral with R. acetosa extract 2 g/kg oral
[3] = 10 mg/kg, fexofenadine 10 mg/kg oral with R. acetosa extract 2 g/kg oral
[4] = 10 mg/kg, fexofenadine 10 mg/kg oral with emodin 11 mg/kg oral
[5] = 10 mg/kg, fexofenadine 10 mg/kg oral with vehicle (control)

With CC(C)(C(=O)O)c1ccc(C(O)CCCN2CCC(C(O)(c3ccccc3)c3ccccc3)CC2)cc1 (stereo not shown) [fexofenadine, Fexofenadine hydrochloride] the Tmax of fexofenadine [1, 2] was 0.75 (0.25–8) h, the Tmax of fexofenadine ([1]; fexofenadine 10 mg/kg oral with emodin 11 mg/kg oral) was 0.75 (0.5–1) h and the Tmax (in vivo; 10 mg/kg) was 45 min. It also gave an AUC(0-t) (in vivo; [3]) of 132 ± 50.5 ng·h/mL, an AUC(0-t) (in vivo; [4]) of 412 ± 189 ng·h/mL and an AUC(0-t) (in vivo; [5]) of 222 ± 85.5 ng·h/mL. For the same compound, the Cmax (in vivo; [3]) was 32.9 ± 28.5 ng/mL, the Cmax (in vivo; [4]) was 53.4 ± 33.9 ng/mL and the Cmax (in vivo; [5]) was 36.4 ± 22.8 ng/mL. The AUC(0-t) (in vivo; [2]) was 132 ± 50.3 ng·h/mL.
